Data on five substances can be found in paper doi:10.1101/2025.04.04.647332.

Sequences of proteins named here, by UniProt entry; tags and fusion partners are left off.
UniProt P09874: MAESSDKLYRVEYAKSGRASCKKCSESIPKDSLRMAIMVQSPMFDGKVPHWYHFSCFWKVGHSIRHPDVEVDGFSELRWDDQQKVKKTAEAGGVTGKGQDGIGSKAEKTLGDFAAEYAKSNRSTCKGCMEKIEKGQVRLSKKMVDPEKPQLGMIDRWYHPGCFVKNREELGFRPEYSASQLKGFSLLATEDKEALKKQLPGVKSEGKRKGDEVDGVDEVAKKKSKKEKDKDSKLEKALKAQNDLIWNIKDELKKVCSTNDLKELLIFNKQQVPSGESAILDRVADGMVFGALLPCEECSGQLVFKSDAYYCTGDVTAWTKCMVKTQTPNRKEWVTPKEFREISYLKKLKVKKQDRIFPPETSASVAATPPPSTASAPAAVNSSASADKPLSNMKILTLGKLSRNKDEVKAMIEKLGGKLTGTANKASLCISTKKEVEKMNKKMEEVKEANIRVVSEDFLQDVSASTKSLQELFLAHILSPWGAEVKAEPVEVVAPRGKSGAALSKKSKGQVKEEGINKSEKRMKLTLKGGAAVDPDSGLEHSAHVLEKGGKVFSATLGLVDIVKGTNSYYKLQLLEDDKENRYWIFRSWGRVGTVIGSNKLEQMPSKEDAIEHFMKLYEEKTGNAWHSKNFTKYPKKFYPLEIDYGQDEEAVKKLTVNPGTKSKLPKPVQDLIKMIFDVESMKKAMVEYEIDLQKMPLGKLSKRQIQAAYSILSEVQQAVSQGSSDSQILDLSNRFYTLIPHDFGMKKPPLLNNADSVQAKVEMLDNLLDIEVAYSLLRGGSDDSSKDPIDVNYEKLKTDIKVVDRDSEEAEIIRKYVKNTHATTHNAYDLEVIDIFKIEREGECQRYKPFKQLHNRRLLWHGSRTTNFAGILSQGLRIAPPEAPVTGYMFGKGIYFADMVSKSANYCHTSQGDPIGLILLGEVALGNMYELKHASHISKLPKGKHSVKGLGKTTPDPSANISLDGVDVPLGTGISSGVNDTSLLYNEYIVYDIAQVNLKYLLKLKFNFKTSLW
UniProt P54725: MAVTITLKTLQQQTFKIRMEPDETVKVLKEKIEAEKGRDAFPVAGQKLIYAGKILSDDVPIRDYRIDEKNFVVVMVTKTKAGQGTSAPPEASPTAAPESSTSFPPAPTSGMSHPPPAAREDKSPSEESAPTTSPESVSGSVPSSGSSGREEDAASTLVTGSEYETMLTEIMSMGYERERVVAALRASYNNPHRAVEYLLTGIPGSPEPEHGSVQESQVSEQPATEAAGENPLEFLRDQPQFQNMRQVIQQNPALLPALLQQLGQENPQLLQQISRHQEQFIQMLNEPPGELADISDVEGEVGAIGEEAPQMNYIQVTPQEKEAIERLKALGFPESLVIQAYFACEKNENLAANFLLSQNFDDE
UniProt P12004: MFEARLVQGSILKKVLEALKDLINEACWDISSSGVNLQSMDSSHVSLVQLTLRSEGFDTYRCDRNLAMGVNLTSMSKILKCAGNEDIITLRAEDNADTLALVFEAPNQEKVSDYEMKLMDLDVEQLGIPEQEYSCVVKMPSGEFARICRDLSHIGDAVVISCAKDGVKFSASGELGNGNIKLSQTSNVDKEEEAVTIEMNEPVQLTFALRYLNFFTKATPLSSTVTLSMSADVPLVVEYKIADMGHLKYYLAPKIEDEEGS
UniProt P54727: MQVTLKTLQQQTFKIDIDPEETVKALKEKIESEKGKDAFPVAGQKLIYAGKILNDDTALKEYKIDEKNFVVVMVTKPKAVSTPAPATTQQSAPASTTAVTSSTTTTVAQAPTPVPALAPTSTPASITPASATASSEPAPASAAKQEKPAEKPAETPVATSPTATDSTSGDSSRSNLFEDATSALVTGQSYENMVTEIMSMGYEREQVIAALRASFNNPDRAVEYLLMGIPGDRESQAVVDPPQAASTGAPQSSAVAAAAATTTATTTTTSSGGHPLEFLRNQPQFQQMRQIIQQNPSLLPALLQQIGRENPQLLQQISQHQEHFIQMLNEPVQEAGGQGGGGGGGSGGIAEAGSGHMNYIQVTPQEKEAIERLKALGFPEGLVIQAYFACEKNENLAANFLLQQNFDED

No constants are given. Whether binding was seen depends on the method and setting. In cells and extracts the contact can be indirect. Here binding means that the protein was enriched with, or labelled near, the bait; the list need not be complete. Sequences can lack the tags named with a protein.

This experiment concerns the target 3x-Flag-tagged human DNA2 (human) (UniProt P51530). As to the kind of experiment: affinity purification with mass spectrometry; 3x-Flag-DNA2 from transfected 293T cell extract held on anti-Flag M2 magnetic beads overnight; IP buffer 50 mM HEPES-KOH pH 7.4, 150 mM NaCl, 0.1% NP40, 10% glycerol; one wash with 500 mM NaCl; eluted with 3x-Flag peptide; gel bands analysed by LC/MS; empty vector as control.
Turning to “PARP1 (from UniProt P09874 1-1014) (enzyme)”, the binding entry is “binds”.

With RAD23A (from UniProt P54725 1-363), the binding result is listed as “binds”.

In the case of PCNA (from UniProt P12004 1-261), the binding entry is “binds”.

As for “DNA-PK (human (endogenous in 293T)) (enzyme)”, the binding entry is “binds”.

In the case of RAD23B (from UniProt P54727 1-409), the binding result was “binds”.
